Experimental data reported in PubChem BioAssay AID2685 (National Center for Advancing Translational Sciences (NCATS), 2010).
Some of the results follow. Shown are side measurements of this screen, not its main read-out; they come without a call. Compounds called inactive in the main read-out are mostly missing here. The note in brackets gives the kind of curve behind each potency; many fits are weak.

Test: qHTS Assay for Lipid Storage Modulators in Drosophila S3 Cells;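 on cell number change: cells counted by Cell Tracker Red CMTPX staining in the red channel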
Conditions: BODIPY lipid droplet fluorescence, 18-24 h; for cell number change: measured here: cell count max response, cells fed with added oleic acid
Procedure, shortened: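 Laser-scanning cytometry quantifies lipid droplet accumulation (500–530 nm total intensity; droplet/cell object ratio) in oleic acid-fed (400 uM added) Drosophila S3 cells treated with a concentration series. 20 uM Triacsin C defined 100% inhibition.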

[1] = measured here: lipid fluorescence (Fed channel) AC50, cells fed with added oleic acid
[2] = measured here: cell number channel AC50, cells fed with added oleic acid

## CN(C)S(=O)(=O)c1cc(NC(=O)CN2CCCc3ccccc32)ccc1Cl
  cell number change: -24.4%
[1]
  AC50: 6.51 µM [rising, single point]

## COc1cc(C(F)(F)F)nc2ccc(C#CCOC(=O)Nc3ccccc3)cc12
[1]
  AC50: 29.1 µM [rising, single point]

## COCCCn1c(SCc2ccc(OC)cc2)nc2cc(OC)c(OC)cc2c1=N
  cell number change: 0.169%
[1]
  AC50: 13 µM [falling, single point]

## CC(C)COc1ccc(C(=O)OCC(=O)NCCC2=CCCCC2)cc1
  cell number change: 44.1%
[2]
  AC50: 10.3 µM [rising, partial curve]

## O=C(NCc1ccc(Cl)cc1Cl)C1CCN(S(=O)(=O)c2ccc3c(c2)OCCCO3)CC1
  cell number change: -5.22%
[1]
  AC50: 29.1 µM [falling, single point]

## Cc1cc(C)n(C(=O)CSc2nc3ccccc3o2)n1
  cell number change: -13.6%
[1]
  AC50: 0.146 µM [falling, full curve, poor fit]

## COc1ccc(N(CC(=O)Nc2ccc(C)c(C)c2)C2=NC3CS(=O)(=O)CC3S2)cc1 (centres undefined)
  cell number change: -3.75%
[1]
  AC50: 1.46 µM [rising, partial curve, poor fit]

## Cc1ccc2sc(N(CCCN(C)C)C(=O)c3ccc(S(=O)(=O)N(C)Cc4ccccc4)cc3)nc2c1C
  cell number change: -80.4%
[2]
  AC50: 14.6 µM [falling, partial curve]

## COc1ccc(OC)c(S(=O)(=O)Nc2ccc(C)c(C)c2)c1
[2]
  AC50: 0.116 µM [rising, full curve, poor fit]
[1]
  AC50: 3.66 µM [rising, partial curve, poor fit]

## c1ccc(-c2cncnc2)nc1
  cell number change: -2.82%
[1]
  AC50: 2.31 µM [rising, partial curve, poor fit]

## CCn1cc(C(=O)N(CCCN2CCOCC2)Cc2ccco2)c(=O)c2ccc(C)nc21
[2]
  AC50: 6.51 µM [falling, single point]
[1]
  AC50: 6.51 µM [falling, single point]

## CCCNS(=O)(=O)c1ccc(Oc2ncc(C(F)(F)F)cc2Cl)cc1
  cell number change: -13.7%
[1]
  AC50: 29.1 µM [falling, single point]

## Cc1ccc(S(=O)(=O)Nc2ccc(=O)n(Cc3ccc(Cl)c(Cl)c3)c2)cc1
  cell number change: -6.97%

## COc1ccc(/C=C/C(=O)NCCCN2CCCC2)cc1
[1]
  AC50: 0.146 µM [rising, partial curve, poor fit]

## CC(=O)OCC(=O)C1CCC2C3CC=C4CC(O)CCC4(C)C3CCC12C (centres undefined)
  cell number change: -23.7%
[1]
  AC50: 5.8 µM [falling, full curve, poor fit]

## COc1ccc([C@@H]2[C@@H]3C(=O)N(C(C)(C)C)C(=O)[C@@H]3[C@]3(CC(C)C)C(=O)N(c4cccc(Br)c4)C(=O)N23)cc1
  cell number change: 27.5%
[1]
  AC50: 29.1 µM [rising, single point]

## NS(=O)(=O)c1cc(C(=O)OCC(=O)c2ccc3c(c2)OCCO3)ccc1Cl
  cell number change: 37.2%
[2]
  AC50: 20.6 µM [rising, partial curve, poor fit]

## O=S(=O)(c1ccc(NC(=S)N/N=C/c2cccc(Oc3ccccc3)c2)cc1)N1CCOCC1
  cell number change: -37.6%

## CC(C)(C)OC(=O)N1CC(O)CC1C(=O)OCC(=O)c1ccc(Cl)cc1 (centres undefined)
  cell number change: 34.8%
[2]
  AC50: 32.6 µM [rising, single point]
[1]
  AC50: 0.517 µM [falling, partial curve]

## O=C(Nc1ccc(S(=O)(=O)NC2=NCCCCC2)cc1)c1cc(S(=O)(=O)N2CCOCC2)ccc1F
  cell number change: -10.8%

## CN1/C(=C\C(=O)COc2ccc3c(c2)OCO3)C(C)(C)c2ccccc21
  cell number change: -42.5%
[2]
  AC50: 29.1 µM [falling, single point]
[1]
  AC50: 0.731 µM [rising, partial curve]

## O=C(Nc1ccc(CN2CCOCC2)cc1)c1ccc(-c2cccc(Cl)c2)o1
  cell number change: -5.38%
[1]
  AC50: 6.51 µM [rising, single point]

## CC(O)c1ccc(-n2cnnn2)cc1 (centres undefined)
[1]
  AC50: 29.1 µM [falling, single point]

## O=C(/C=C/c1ccccc1[N+](=O)[O-])c1ccc(F)cc1
  cell number change: -37.5%
[2]
  AC50: 0.82 µM [falling, full curve, poor fit]
[1]
  AC50: 18.4 µM [falling, partial curve, poor fit]

## Cc1cccc(C(=O)N2N=C(c3ccc(NS(C)(=O)=O)cc3)CC2c2cccs2)c1 (centres undefined)
  cell number change: 2.78%
[1]
  AC50: 6.51 µM [rising, single point]

## Cc1cc(NC(=O)C(C)SCC(=O)Nc2ccccc2C(C)(C)C)no1 (centres undefined)
  cell number change: 23.1%
[1]
  AC50: 3.66 µM [rising, partial curve, poor fit]

## O=C(COC(=O)c1ccc2c(c1)OCCO2)NCCC1=CCCCC1
  cell number change: -0.975%
[1]
  AC50: 23.1 µM [falling, single point]

## CC(C)NC(=O)NC(=O)COC(=O)c1ccc([N+](=O)[O-])cc1Cl
  cell number change: -46.9%
[2]
  AC50: 23.1 µM [falling, single point]

## CN(C)S(=O)(=O)c1ccc(N=Cc2c(C(F)(F)F)[nH][nH]c2=O)cc1
  cell number change: -12.3%
[2]
  AC50: 5.8 µM [falling, single point]

## CCOc1ccc(C2CC(c3cccc(OC)c3)Nc3ncnn32)cc1 (centres undefined)
  cell number change: 10.3%
[1]
  AC50: 20.6 µM [rising, single point]

## NNC(=O)c1nn(-c2ccc(Cl)cc2)cc1O
  cell number change: 22.1%
[2]
  AC50: 1.46 µM [rising, full curve, poor fit]
[1]
  AC50: 1.84 µM [rising, partial curve]

## CC(C)(C)c1ccc(C(=O)NC(=O)CSc2n[nH]c(N)n2)cc1
  cell number change: 12.2%
[1]
  AC50: 0.13 µM [rising, full curve, poor fit]

## O=C(NC(=S)Nc1ccc(Br)cc1)C1CCCCC1
  cell number change: 27.9%

## CC(C)Oc1ccc(C(=O)Nc2cc(=O)n(C)c(=O)n2C)cc1
  cell number change: -18.2%
[1]
  AC50: 0.58 µM [falling, single point]

## Cc1ccc(C(=O)N/N=C\c2ccc3c(c2)OCO3)cn1
  cell number change: -2.38%
[1]
  AC50: 16.4 µM [rising, single point]

## Cc1oncc1C(=O)Nc1cccc(C#N)c1
  cell number change: 24.6%
[1]
  AC50: 9.2 µM [falling, partial curve, poor fit]

## Cc1ccc(C)c(N(C(=O)CNC(=O)c2ccco2)C(C(=O)NCC2CCCO2)c2ccccc2)c1 (centres undefined)
  cell number change: -6.58%
[1]
  AC50: 0.562 µM [falling, partial curve, poor fit]

## O=C(CSc1nc2scc(-c3ccccc3)c2c(=O)[nH]1)N1CCOCC1
  cell number change: -7.33%
[1]
  AC50: 29.1 µM [falling, single point]

## CCc1c(C)c(C#N)c2nc3ccccc3n2c1NCc1ccco1
  cell number change: -19.4%
[1]
  AC50: 0.00461 µM [rising, full curve, poor fit]

## C#CCOCCOCCOCCNc1nc(N2CCN(C(=O)C(Cc3cc4ccccc4[nH]3)n3cc(C(N)C(C)CC)nn3)CC2)nc(N2CCN(C(=O)C(Cc3cc4ccccc4[nH]3)n3cc(C(N)C(C)CC)nn3)CC2)n1 (centres undefined)
  cell number change: -48.7%
[2]
  AC50: 16.4 µM [falling, single point]
[1]
  AC50: 23.1 µM [falling, partial curve]

## COc1ccc(-c2nnc(NC(=O)c3cc(Cl)ccc3Cl)o2)cc1
  cell number change: -59.4%
[2]
  AC50: 29.1 µM [falling, single point]
[1]
  AC50: 29.1 µM [falling, single point]

## Cc1ccc(S(=O)(=O)N2CCOCC2)cc1NC(=O)COC(=O)c1cnccn1
  cell number change: 4.51%
[1]
  AC50: 0.231 µM [rising, full curve]

## O=C(NCCC(=O)N1CCCCC1)c1ccccc1Cl
  cell number change: 14.6%

## COc1ccccc1N1C(=O)c2ccccc2NC1c1ccncc1 (centres undefined)
[2]
  AC50: 1.03 µM [rising, partial curve]

## CCN(CC)c1ccc(NC(=O)CN2C(=O)CC(C)(C)S(=O)(=O)c3ccccc32)c(C)c1
  cell number change: -29.8%
[1]
  AC50: 29.1 µM [falling, single point]

## CCn1c(=NC(=O)c2ccc(N3C(=O)CCC3=O)cc2)sc2c(OC)ccc(OC)c21
  cell number change: -50.5%
[2]
  AC50: 29.1 µM [falling, single point]
[1]
  AC50: 4.61 µM [falling, partial curve]

## O=C(O)CCN1C(=O)c2ccc(NC(=O)C(c3ccccc3)c3ccccc3)cc2C1=O
  cell number change: 25.6%

## O=c1cc2oc3cc(O)c(O)cc3c(-c3ccccc3[N+](=O)[O-])c-2cc1O
[2]
  AC50: 0.116 µM [rising, full curve, poor fit]
[1]
  AC50: 29.1 µM [rising, single point]

## COc1ccccc1Nc1nc(C)nc2c1oc1ccccc12
  cell number change: -31.7%
[2]
  AC50: 16.4 µM [falling, single point]
[1]
  AC50: 29.1 µM [falling, single point]

## O=C(NC1CC2CCCC(C1)N2C(=S)Nc1ccccc1Cl)C1CC1 (centres undefined)
  cell number change: 3.85%

## CC(=O)C12CCCCC1CC1C3CC(C)C4(O)CC(=O)CCC4(C)C3CCC12C (centres undefined)
  cell number change: -6.3%
[1]
  AC50: 0.731 µM [falling, full curve, poor fit]

## COc1cc(C(=O)Nc2ccc(N(C)C)cc2)cc(OC)c1OC
  cell number change: 20.7%

## Cc1cc(=O)oc2cc(OCC(=O)OCC(=O)N(CCC#N)c3ccccc3)ccc12
  cell number change: -1.64%

## N=c1ccn(Cc2cccc(F)c2)cc1
  cell number change: -10.8%
[2]
  AC50: 0.00461 µM [falling, full curve, poor fit]

## CC1(C)CC(=O)C2=C(C1)Nc1[nH]c(=S)[nH]c(=O)c1C2c1ccccc1 (centres undefined)
  cell number change: 8.27%

## CCn1c(COc2cccc(OC)c2)nnc1SCC(=O)Nc1cccc(OC)c1
  cell number change: -20.1%
[1]
  AC50: 29.1 µM [falling, single point]

## COc1ccc(Nc2ccccc2N)cc1
  cell number change: 69.2%
[2]
  AC50: 11.6 µM [rising, partial curve]
[1]
  AC50: 32.6 µM [falling, partial curve, poor fit]
